PubChem BioAssay AID1259308 | NCATS, 2017
In all, the deposit lists about 59,000 reagents; below is an unselected part. Over the whole deposit, about 1,510 (2.6%) were called active. 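Calls use total luciferase alone and ignore viability, so some active siRNAs may act by altering cell number.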 Reagents against one gene are numbered here. Further read-outs or replicates are left out here. No sequences are given here.

- Aim: 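Candidate targets for better recombinant protein yield in mammalian cells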 (primary screen)
- System: human HEK293 embryonic kidney cells stably expressing firefly luciferase (HEK-CMV-Luc2-Hygro)
- Reagents: single siRNA against human genes, 0.8 pmol siRNA per well
- Time to read-out: 72 h
- Measurement: 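Luciferase light (ONE-Glo) measured on one replicate plate set and viability (CellTiter-Glo) on the other, scaled to a negative control siRNA, with robust z-scores and luciferase per cell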
- Reading the numbers: total luciferase, z-score: higher = more reporter protein produced
- Call rule: 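An siRNA counts as active if its total luciferase robust z-score exceeds 3; genes with two or more such siRNAs out of three were retested with fresh siRNAs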
- Calls: active = raised luciferase; inactive = no rise

After knock-down of AGAP4 (ArfGAP with GTPase domain, ankyrin repeat and PH domain 4) #1, the screen gave total luciferase, z-score 1.62; inactive.
For AGAP4 (ArfGAP with GTPase domain, ankyrin repeat and PH domain 4) #2, the entry reads total luciferase, z-score 0.342; inactive.
With knock-down of AGAP4 (ArfGAP with GTPase domain, ankyrin repeat and PH domain 4) #3 the results were total luciferase, z-score 0.0485; inactive.
After knock-down of H1-8 (H1.8 linker histone) #1 the results were total luciferase, z-score 0.0995; inactive.
Knock-down of H1-8 (H1.8 linker histone) #2 came out at: total luciferase, z-score 2.46; inactive.
For H1-8 (H1.8 linker histone) #3, the values are total luciferase, z-score -2.33; inactive.
SAMD1 (sterile alpha motif domain containing 1) #1 showed total luciferase, z-score 2.42; inactive.
Depletion of SAMD1 (sterile alpha motif domain containing 1) #2 resulted in: total luciferase, z-score 0.232; inactive.
Depletion of SAMD1 (sterile alpha motif domain containing 1) #3 came out at: total luciferase, z-score 2.84; inactive.
Against INCA1 (inhibitor of CDK, cyclin A1 interacting protein 1) #1 the deposit lists total luciferase, z-score -0.381; inactive.
Knock-down of INCA1 (inhibitor of CDK, cyclin A1 interacting protein 1) #2 gave: total luciferase, z-score 4.29; active.
After knock-down of INCA1 (inhibitor of CDK, cyclin A1 interacting protein 1) #3 the results were total luciferase, z-score 0.909; inactive.
Depletion of LINC00336 (long independently transcribed non-coding RNA 336) #1 gave: total luciferase, z-score 0.453; inactive.
Against LINC00336 (long independently transcribed non-coding RNA 336) #2 the deposit lists total luciferase, z-score -1.51; inactive.
With knock-down of LINC00336 (long independently transcribed non-coding RNA 336) #3 the results were total luciferase, z-score 1.72; inactive.
With knock-down of SBF2-AS1 (SBF2 antisense RNA 1) #1 the results were total luciferase, z-score 0.51; inactive.
Depletion of SBF2-AS1 (SBF2 antisense RNA 1) #2 gave: total luciferase, z-score -0.446; inactive.
Knock-down of SBF2-AS1 (SBF2 antisense RNA 1) #3 gave: total luciferase, z-score -0.328; inactive.
After knock-down of FGFR4 (fibroblast growth factor receptor 4) #1, the screen gave total luciferase, z-score -1.44; inactive.
After knock-down of FGFR4 (fibroblast growth factor receptor 4) #2, the screen gave total luciferase, z-score -1.14; inactive.
After knock-down of FGFR4 (fibroblast growth factor receptor 4) #3 the results were total luciferase, z-score -0.346; inactive.

3 entries from above, arranged by “total luciferase, z-score”, high to low.
INCA1 (inhibitor of CDK, cyclin A1 interacting protein 1) #2 → total luciferase, z-score: 4.29; call: active
INCA1 (inhibitor of CDK, cyclin A1 interacting protein 1) #3 → total luciferase, z-score: 0.909; call: inactive
LINC00336 (long independently transcribed non-coding RNA 336) #1 → total luciferase, z-score: 0.453; call: inactive

More records follow.
Against PAXX (PAXX non-homologous end joining factor) #1 the deposit lists total luciferase, z-score 0.162; inactive.
After knock-down of PAXX (PAXX non-homologous end joining factor) #2, the record shows total luciferase, z-score -0.283; inactive.
PAXX (PAXX non-homologous end joining factor) #3 scored total luciferase, z-score -1.87; inactive.
After knock-down of YARS1 (tyrosyl-tRNA synthetase 1) #1, the record shows total luciferase, z-score 1.48; inactive.
YARS1 (tyrosyl-tRNA synthetase 1) #2 gave total luciferase, z-score -0.748; inactive.
Depletion of YARS1 (tyrosyl-tRNA synthetase 1) #3 came out at: total luciferase, z-score 1.48; inactive.
DAPK2 (death associated protein kinase 2) #1 scored total luciferase, z-score 1.28; inactive.
DAPK2 (death associated protein kinase 2) #2 gave total luciferase, z-score 0.179; inactive.
For DAPK2 (death associated protein kinase 2) #3 the deposit lists total luciferase, z-score 0.215; inactive.
Silencing of PPCDC (phosphopantothenoylcysteine decarboxylase) #1 resulted in: total luciferase, z-score -0.186; inactive.
Silencing of PPCDC (phosphopantothenoylcysteine decarboxylase) #2 gave: total luciferase, z-score 0.446; inactive.
Depletion of PPCDC (phosphopantothenoylcysteine decarboxylase) #3 came out at: total luciferase, z-score -0.793; inactive.
